Data taken from the supplement of paper PMC4604168 (melanoma cell lines).
Some of the results follow. Many values rest on one well or one pass, so single values are uncertain.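 The apoptosis fraction was the count of cleaved-PARP antibody-stained nuclei relative to all DNA-stained nuclei, imaged in 1,536-well plates. Screening doses were set so most cells survived, and baseline and induced cleaved-PARP levels vary greatly across cell lines.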

What was measured:
Experiment in all cases: cleaved PARP positive nuclei fraction relative to DMSO control; melanoma cells; higher = more apoptosis
Conditions in all cases: library dose: low library concentration; 72 h
[1] = system: 501Mel
[2] = system: A101D
[3] = system: A2058
[4] = system: A375
[5] = system: C32
[6] = system: CBRC008 (line from a melanoma biopsy)
[7] = system: CBRC013 (line from a melanoma biopsy)
[8] = system: CBRC014 (line from a melanoma biopsy)
[9] = system: CBRC016 (line from a melanoma biopsy)
[10] = system: CBRC017 (line from a melanoma biopsy)
[11] = system: COLO792
[12] = system: COLO800
[13] = system: COLO829
[14] = system: G361
[15] = system: IPC-298
[16] = system: IST-MEL1
[17] = system: LB2518-MEL
[18] = system: LOXIMVI
[19] = system: MEL-HO

SMILES	cleaved PARP positive nuclei fraction [1]	cleaved PARP positive nuclei fraction [2]	cleaved PARP positive nuclei fraction [3]	cleaved PARP positive nuclei fraction [4]	cleaved PARP positive nuclei fraction [5]	cleaved PARP positive nuclei fraction [6]	cleaved PARP positive nuclei fraction [7]	cleaved PARP positive nuclei fraction [8]	cleaved PARP positive nuclei fraction [9]	cleaved PARP positive nuclei fraction [10]	cleaved PARP positive nuclei fraction [11]	cleaved PARP positive nuclei fraction [12]	cleaved PARP positive nuclei fraction [13]	cleaved PARP positive nuclei fraction [14]	cleaved PARP positive nuclei fraction [15]	cleaved PARP positive nuclei fraction [16]	cleaved PARP positive nuclei fraction [17]	cleaved PARP positive nuclei fraction [18]	cleaved PARP positive nuclei fraction [19]
Clc1ccc(Nc2nnc(Cc3ccncc3)c3ccccc23)cc1 [vatalanib] + CN(NC(=O)CC(=O)NN(C)C(=S)c1ccccc1)C(=S)c1ccccc1 [STA4783] (first compound 2 µM, partner dose 0.006 µM)	159%	132%	114%	88.5%	75.6%	125%	104%	109%	79%	115%	136%	218%	99.8%	52.8%	45.9%	63.9%	129%	439%	74.1%
CO[C@@H]1[C@H](N(C)C(=O)c2ccccc2)C[C@H]2O[C@]1(C)n1c3ccccc3c3c4c(c5c6ccccc6n2c5c31)C(=O)NC4 [Midostaurin] + Cn1cncc1[C@@](N)(c1ccc(Cl)cc1)c1ccc2c(c1)c(-c1cccc(Cl)c1)cc(=O)n2C [tipifarnib] (first compound 0.08 µM, partner dose 0.01 µM)	39.1%	90.9%	43.8%	287%	100%	204%	142%	95%	170%	180%	173%	90.3%	45.7%	205%	170%	228%	291%	37.8%	35.8%
C=CCNC1=C2C[C@@H](C)C[C@H](OC)[C@H](O)[C@@H](C)/C=C(\C)[C@H](OC(N)=O)[C@@H](OC)/C=C\C=C(/C)C(=O)NC(=CC1=O)C2=O [Tanespimycin] + C[C@@H]1CCN(C(=O)CC#N)C[C@@H]1N(C)c1ncnc2[nH]ccc12 [CP690550] (first compound 0.002 µM, partner dose 1 µM)	33.5%	181%	73%	156%	272%	391%	118%	104%	140%	105%	65.5%	93.8%	94.8%	66.9%	141%	77.1%	51.4%	31.8%	301%
CC(C)(C)c1cnc(CSc2cnc(NC(=O)C3CCNCC3)s2)o1 + C[C@@H]1CCN(C(=O)CC#N)C[C@@H]1N(C)c1ncnc2[nH]ccc12 [CP690550] (first compound 0.01 µM, partner dose 1 µM)	85.5%	161%	122%	104%	90.6%	180%	131%	80.9%	182%	76.5%	185%	141%	207%	74.4%	90.5%	48.7%	91.4%	51.8%	60.3%
NC(=O)Nc1cc(-c2cccc(F)c2)sc1C(=O)N[C@H]1CCCNC1 + COc1cc2c(Oc3ccc4[nH]c(C)cc4c3F)ncnc2cc1OCCCN1CCCC1 [cediranib] (first compound 0.02 µM, partner dose 0.4 µM)	206%	83.8%	80%	229%	192%	107%	115%	87.9%	63.7%	110%	93%	108%	106%	89.3%	40.6%	84.8%	67.1%	121%	63.3%
Cn1nnc2c(C(N)=O)ncn2c1=O [temozolomide] + COc1cc2c(Oc3ccc4[nH]c(C)cc4c3F)ncnc2cc1OCCCN1CCCC1 [cediranib] (first compound 2 µM, partner dose 0.4 µM)	105%	101%	181%	102%	89.7%	177%	97.2%	143%	74.4%	72.2%	86.6%	82%	75.5%	105%	105%	309%	177%	42.3%	76.6%
CC1(C)NC(=O)N(c2ccc([N+](=O)[O-])c(C(F)(F)F)c2)C1=O [nilutamide] + NCC(=O)Nc1ccc(-n2nc(C(F)(F)F)cc2-c2ccc3c(ccc4ccccc43)c2)cc1 [OSU03012] (first compound 1 µM, partner dose 1 µM)	552%	78.6%	33.1%	1730%	19.9%	47.9%	127%	71.1%	136%	59.5%	136%	92.7%	147%	30.2%	113%	134%	38.8%	44.7%	70.7%
CC(=O)c1c(C)c2cnc(Nc3ccc(N4CCNCC4)cn3)nc2n(C2CCCC2)c1=O [palbociclib] + Cc1cc(N2CCOCC2)cc2[nH]c(-c3c(NC[C@@H](O)c4cccc(Cl)c4)cc[nH]c3=O)nc12 [BMS536924] (first compound 0.04 µM, partner dose 0.2 µM)	180%	219%	95.1%	477%	106%	84.6%	73.5%	120%	127%	143%	137%	141%	74.6%	193%	62.7%	120%	199%	34.6%	139%
O=C(CCCCCCC(=O)Nc1ccccc1)NO [vorinostat] + COc1cc(Nc2ncc(F)c(Nc3ccc4c(n3)NC(=O)C(C)(C)O4)n2)cc(OC)c1OC [Tamatinib] (first compound 0.08 µM, partner dose 0.4 µM)	90.5%	195%	222%	80.9%	100%	60.9%	71.1%	80.4%	121%	94%	157%	130%	103%	121%	103%	96.8%	102%	30.2%	135%
Cc1ccc(NC(=O)c2cccc(N(C)C)c2)cc1NC(=O)c1ccc(O)cc1 + O=C(Nc1cccc(Cl)c1)Nc1ncc(CCNc2ncnc3ccsc23)s1 [SNS314] (first compound 2 µM, partner dose 0.0008 µM)	70%	89.7%	92.1%	72.9%	158%	77.1%	87.7%	111%	154%	95.7%	106%	58.3%	101%	89.5%	106%	102%	157%	60.6%	71.9%
Cn1nnc2c(C(N)=O)ncn2c1=O [temozolomide] + NCC(=O)Nc1ccc(-n2nc(C(F)(F)F)cc2-c2ccc3c(ccc4ccccc43)c2)cc1 [OSU03012] (first compound 2 µM, partner dose 1 µM)	485%	80%	81.5%	1740%	92.4%	143%	92%	94%	119%	78.2%	91.1%	52.7%	140%	87.1%	163%	169%	89.5%	53%	125%
Clc1ccc(Nc2nnc(Cc3ccncc3)c3ccccc23)cc1 [vatalanib] + CC(C)(C)c1cnc(CSc2cnc(NC(=O)C3CCNCC3)s2)o1 [SNS-032] (first compound 2 µM, partner dose 0.01 µM)	89.5%	122%	48.2%	58.3%	129%	34.6%	177%	98.7%	128%	103%	118%	55.9%	133%	136%	101%	223%	49.1%	242%	151%
CC(=O)c1c(C)c2cnc(Nc3ccc(N4CCNCC4)cn3)nc2n(C2CCCC2)c1=O [palbociclib] + CC1(C)NC(=O)N(c2ccc([N+](=O)[O-])c(C(F)(F)F)c2)C1=O [nilutamide] (first compound 0.04 µM, partner dose 1 µM)	145%	57.6%	58.4%	298%	74.5%	172%	88%	117%	71.4%	110%	120%	62.8%	84.4%	124%	111%	208%	242%	38.5%	157%
Cc1cc(N2CCOCC2)cc2[nH]c(-c3c(NC[C@@H](O)c4cccc(Cl)c4)cc[nH]c3=O)nc12 + Cn1cncc1[C@@](N)(c1ccc(Cl)cc1)c1ccc2c(c1)c(-c1cccc(Cl)c1)cc(=O)n2C [tipifarnib] (first compound 0.2 µM, partner dose 0.01 µM)	109%	173%	214%	435%	130%	290%	96.7%	99.7%	106%	121%	190%	293%	42.1%	184%	229%	181%	60%	108%	164%
Cn1nnc2c(C(N)=O)ncn2c1=O [temozolomide] + Cn1cncc1[C@@](N)(c1ccc(Cl)cc1)c1ccc2c(c1)c(-c1cccc(Cl)c1)cc(=O)n2C [tipifarnib] (first compound 2 µM, partner dose 0.01 µM)	88.3%	91.1%	190%	191%	59.2%	140%	108%	106%	99.2%	112%	181%	94.3%	43.8%	115%	50.9%	116%	21.6%	98.5%	138%
C[C@]1(c2nc3c(C(N)=O)cccc3[nH]2)CCCN1 [Veliparib] + NC(=O)Nc1cc(-c2cccc(F)c2)sc1C(=O)N[C@H]1CCCNC1 [AZD7762] (first compound 1.4 µM, partner dose 0.02 µM)	67.6%	99.6%	64.3%	1430%	145%	43.8%	137%	76.1%	65%	108%	124%	223%	98.5%	124%	84.8%	45.5%	91.6%	77%	62.5%
C=CCn1c(=O)c2cnc(Nc3ccc(N4CCN(C)CC4)cc3)nc2n1-c1cccc(C(C)(C)O)n1 + NCC(=O)Nc1ccc(-n2nc(C(F)(F)F)cc2-c2ccc3c(ccc4ccccc43)c2)cc1 [OSU03012] (first compound 0.02 µM, partner dose 1 µM)	436%	102%	244%	16400%	111%	72.6%	109%	90.8%	453%	136%	120%	93.2%	111%	68.8%	31.5%	51.1%	90.7%	176%	70.6%
CC1(C)NC(=O)N(c2ccc([N+](=O)[O-])c(C(F)(F)F)c2)C1=O [nilutamide] + CN(NC(=O)CC(=O)NN(C)C(=S)c1ccccc1)C(=S)c1ccccc1 [STA4783] (first compound 1 µM, partner dose 0.006 µM)	252%	188%	99.8%	4410%	180%	1450%	142%	684%	189%	113%	105%	137%	231%	161%	196%	97.1%	377%	43.7%	626%

Single values from the list.
O=C(CCCCCCC(=O)Nc1ccccc1)NO [vorinostat] + COc1cc(Nc2ncc(F)c(Nc3ccc4c(n3)NC(=O)C(C)(C)O4)n2)cc(OC)c1OC [Tamatinib] (first compound 0.08 µM, partner dose 0.4 µM) | cleaved PARP positive nuclei fraction [3]: 222%
NC(=O)Nc1cc(-c2cccc(F)c2)sc1C(=O)N[C@H]1CCCNC1 + COc1cc2c(Oc3ccc4[nH]c(C)cc4c3F)ncnc2cc1OCCCN1CCCC1 [cediranib] (first compound 0.02 µM, partner dose 0.4 µM) | cleaved PARP positive nuclei fraction [5]: 192%
